{"source": "the supplement of paper PMC3334620", "note": "Over roughly 33,000 sequences, “E-score (-0.5 to 0.5)” has its median near -0.015; the highest 2% begin near 0.3. This is one part of the list."}
{"target": "T1, Abf1 (UniProt P14164)", "T1 sequence": "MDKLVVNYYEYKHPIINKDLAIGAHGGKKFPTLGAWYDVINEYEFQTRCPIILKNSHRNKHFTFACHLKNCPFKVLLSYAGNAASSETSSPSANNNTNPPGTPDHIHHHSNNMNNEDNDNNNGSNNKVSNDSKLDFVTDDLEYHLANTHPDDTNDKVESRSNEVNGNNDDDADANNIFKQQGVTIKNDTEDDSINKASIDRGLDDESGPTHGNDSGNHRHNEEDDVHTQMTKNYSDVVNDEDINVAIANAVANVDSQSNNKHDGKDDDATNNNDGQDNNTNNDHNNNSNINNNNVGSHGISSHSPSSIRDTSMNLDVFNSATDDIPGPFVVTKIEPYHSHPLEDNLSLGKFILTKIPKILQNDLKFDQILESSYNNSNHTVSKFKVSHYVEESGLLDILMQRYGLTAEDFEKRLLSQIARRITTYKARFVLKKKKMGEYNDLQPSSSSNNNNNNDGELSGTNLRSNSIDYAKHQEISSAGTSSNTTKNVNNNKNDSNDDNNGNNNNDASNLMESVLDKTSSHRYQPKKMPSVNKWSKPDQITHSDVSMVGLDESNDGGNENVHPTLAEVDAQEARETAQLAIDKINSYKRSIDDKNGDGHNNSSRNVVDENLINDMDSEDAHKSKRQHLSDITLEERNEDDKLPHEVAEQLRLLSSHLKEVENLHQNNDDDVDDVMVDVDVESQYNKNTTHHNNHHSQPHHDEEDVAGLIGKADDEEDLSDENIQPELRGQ", "assay": "PBM E-score (8-mer binding enrichment) (E-score (-0.5 to 0.5)); higher = stronger / more preferred TF binding", "conditions": "protein concentration: 200 nM; construct: GST-full length", "procedure,_shortened": "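Full-length yeast transcription factors or their DNA-binding domains, GST-tagged and expressed with PURExpress, were applied at about 100-200 nM to universal all-10-mer Agilent arrays. These arrays had been made double-stranded by primer extension on fresh or once-stripped slides. Detection used fluorescent anti-GST, normalisation used masliner, and E-scores for ungapped eight-base words pooled with reverse complements came from the Universal PBM Analysis Suite.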"}
{"sequence": "CCGCTCGC", "PBM E-score": -0.0462}
{"sequence": "CAATGCTA", "PBM E-score": 0.00982}
{"sequence": "CGTTTGCA", "PBM E-score": 0.164}
{"sequence": "AGCTAACG", "PBM E-score": -0.0182}
{"sequence": "AAGATTCG", "PBM E-score": 0.214}
{"sequence": "GCTTAAGA", "PBM E-score": 0.0407}
{"sequence": "AAAGCAAG", "PBM E-score": -0.0749}
{"sequence": "AGTGATAA", "PBM E-score": 0.445}
{"sequence": "CCCATGAA", "PBM E-score": -0.138}
{"sequence": "TCAGGCAA", "PBM E-score": 0.0812}
{"sequence": "ATGCAGAC", "PBM E-score": 0.106}
{"sequence": "ACTTAGAT", "PBM E-score": 0.209}
{"sequence": "GGACATAC", "PBM E-score": 0.0814}
{"sequence": "AACAAATG", "PBM E-score": 0.105}
{"sequence": "CCTTTTAC", "PBM E-score": 0.0826}
{"sequence": "CGGAGCTC", "PBM E-score": -0.138}
{"sequence": "CTTCCAAA", "PBM E-score": 0.051}
{"sequence": "GAAGATCC", "PBM E-score": -0.194}
{"sequence": "ACTGCCGC", "PBM E-score": -0.0637}
{"sequence": "AGTAAAAC", "PBM E-score": -0.0817}
{"sequence": "CGTGCATC", "PBM E-score": 0.203}
{"sequence": "CCCGCGAA", "PBM E-score": 0.0505}
{"sequence": "ATCGTAAG", "PBM E-score": 0.108}
{"sequence": "AGATAACA", "PBM E-score": 0.183}
{"sequence": "GTGCTCTA", "PBM E-score": 0.0515}
{"sequence": "CATAGAAC", "PBM E-score": -0.203}
{"sequence": "AACGTTTG", "PBM E-score": -0.141}
{"sequence": "CAGCTAGA", "PBM E-score": 0.0775}
{"sequence": "CCTGACGC", "PBM E-score": -0.243}
{"sequence": "AAAGGTTG", "PBM E-score": -0.0789}
{"sequence": "CAAAAATG", "PBM E-score": -0.0179}
{"sequence": "AGGACAGG", "PBM E-score": -0.0767}
{"sequence": "AACTAGGA", "PBM E-score": -0.0176}
{"sequence": "TAATGTCA", "PBM E-score": 0.161}
{"sequence": "GAAGATAC", "PBM E-score": 0.036}
{"sequence": "CCCACCCA", "PBM E-score": -0.164}
{"sequence": "CTATTTGA", "PBM E-score": 0.0272}
{"sequence": "AGAACTTC", "PBM E-score": 0.0209}
{"sequence": "AGTATTAT", "PBM E-score": 0.106}
{"sequence": "AACTATGG", "PBM E-score": -0.215}
{"sequence": "GCTAGGCC", "PBM E-score": -0.0546}
{"sequence": "GTTAACGA", "PBM E-score": 0.252}
{"sequence": "ACTGGACG", "PBM E-score": 0.0734}
{"sequence": "CAGCTGGA", "PBM E-score": 0.0243}
{"sequence": "GCACTAAA", "PBM E-score": 0.16}
{"sequence": "GGCGAATA", "PBM E-score": -0.048}
{"sequence": "ACCAGAGA", "PBM E-score": -0.0205}
{"sequence": "GGAGTCAA", "PBM E-score": -0.31}
{"sequence": "AGATTGTC", "PBM E-score": 0.168}
{"sequence": "AACGAACG", "PBM E-score": 0.144}
{"sequence": "CTTGTCTA", "PBM E-score": -0.0203}
{"sequence": "AAGGCTCC", "PBM E-score": -0.299}
{"sequence": "CCGACCCC", "PBM E-score": -0.351}
{"sequence": "CTCGTTAC", "PBM E-score": 0.0169}
{"sequence": "TATGTCGA", "PBM E-score": 0.0949}
{"sequence": "CTCTGCGA", "PBM E-score": 0.0546}
{"sequence": "AAATACGT", "PBM E-score": 0.039}
{"sequence": "CTTCTTGA", "PBM E-score": -0.0179}
{"sequence": "CTTTACAA", "PBM E-score": -0.021}
{"sequence": "AGATCCCA", "PBM E-score": -0.0562}
{"sequence": "AGACGCTC", "PBM E-score": -0.119}
{"sequence": "CTATCACC", "PBM E-score": 0.226}
{"sequence": "CACTGCTA", "PBM E-score": -0.0546}
{"sequence": "ACGCGGGG", "PBM E-score": -0.232}
{"sequence": "ACAGTAAC", "PBM E-score": 0.00611}
{"sequence": "GGCACGCA", "PBM E-score": -0.0922}
{"sequence": "CCCCTAGC", "PBM E-score": -0.318}
{"sequence": "AGACCTAG", "PBM E-score": 0.00079}
{"sequence": "CAATCCTA", "PBM E-score": -0.177}
{"sequence": "AGTCGGGG", "PBM E-score": -0.17}
{"sequence": "AACTAGTG", "PBM E-score": -0.0264}
{"sequence": "CGTCCGAG", "PBM E-score": 0.211}
{"sequence": "CGTTAGTA", "PBM E-score": 0.248}
{"sequence": "GATAACCA", "PBM E-score": 0.185}
{"sequence": "AACAATCG", "PBM E-score": -0.029}
{"sequence": "CGGTCTAC", "PBM E-score": -0.0256}
{"sequence": "GGCTGACC", "PBM E-score": -0.112}
{"sequence": "ATAGGCGA", "PBM E-score": 0.0309}
{"sequence": "AGGACATG", "PBM E-score": -0.0301}
{"sequence": "TCGAGCAA", "PBM E-score": 0.1}
{"sequence": "TCGGAGAA", "PBM E-score": -0.0796}
{"sequence": "CGACGAGC", "PBM E-score": 0.125}
{"sequence": "ACTGGGGC", "PBM E-score": -0.165}
{"sequence": "CCTTAAGC", "PBM E-score": -0.123}
{"sequence": "GCAGGCGA", "PBM E-score": -0.0842}
{"sequence": "GACAGGTC", "PBM E-score": -0.101}
